No constants are given. Whether binding was seen depends on the method and setting. In cells and extracts the contact can be indirect. These calls come from enrichment with a bait or labelling near it, and not all partners need be listed. Tags and fused reporters may be left off the sequences shown.
Target: T1, Hemagglutinin (HA) tagged SEI1 protein (HA‐SEI1) (human) (UniProt Q9UHV2)
T1 sequence: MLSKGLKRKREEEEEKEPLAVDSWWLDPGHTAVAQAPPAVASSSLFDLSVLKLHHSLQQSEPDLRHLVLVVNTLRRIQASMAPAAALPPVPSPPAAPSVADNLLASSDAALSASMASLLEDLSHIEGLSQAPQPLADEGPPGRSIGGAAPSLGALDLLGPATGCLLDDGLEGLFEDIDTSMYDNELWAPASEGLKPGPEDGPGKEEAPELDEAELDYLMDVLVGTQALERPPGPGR
Test: affinity purification with mass spectrometry; lysate of IM-9 cells overexpressing HA-SEI1 immunoprecipitated with agarose-immobilized HA antibody at 4 °C overnight, six washes, nano-LC/MS/MS; IM-9 cells with empty vector as control

The chains behind the UniProt entries cited, without tags or fusion partners.
UniProt Q92793: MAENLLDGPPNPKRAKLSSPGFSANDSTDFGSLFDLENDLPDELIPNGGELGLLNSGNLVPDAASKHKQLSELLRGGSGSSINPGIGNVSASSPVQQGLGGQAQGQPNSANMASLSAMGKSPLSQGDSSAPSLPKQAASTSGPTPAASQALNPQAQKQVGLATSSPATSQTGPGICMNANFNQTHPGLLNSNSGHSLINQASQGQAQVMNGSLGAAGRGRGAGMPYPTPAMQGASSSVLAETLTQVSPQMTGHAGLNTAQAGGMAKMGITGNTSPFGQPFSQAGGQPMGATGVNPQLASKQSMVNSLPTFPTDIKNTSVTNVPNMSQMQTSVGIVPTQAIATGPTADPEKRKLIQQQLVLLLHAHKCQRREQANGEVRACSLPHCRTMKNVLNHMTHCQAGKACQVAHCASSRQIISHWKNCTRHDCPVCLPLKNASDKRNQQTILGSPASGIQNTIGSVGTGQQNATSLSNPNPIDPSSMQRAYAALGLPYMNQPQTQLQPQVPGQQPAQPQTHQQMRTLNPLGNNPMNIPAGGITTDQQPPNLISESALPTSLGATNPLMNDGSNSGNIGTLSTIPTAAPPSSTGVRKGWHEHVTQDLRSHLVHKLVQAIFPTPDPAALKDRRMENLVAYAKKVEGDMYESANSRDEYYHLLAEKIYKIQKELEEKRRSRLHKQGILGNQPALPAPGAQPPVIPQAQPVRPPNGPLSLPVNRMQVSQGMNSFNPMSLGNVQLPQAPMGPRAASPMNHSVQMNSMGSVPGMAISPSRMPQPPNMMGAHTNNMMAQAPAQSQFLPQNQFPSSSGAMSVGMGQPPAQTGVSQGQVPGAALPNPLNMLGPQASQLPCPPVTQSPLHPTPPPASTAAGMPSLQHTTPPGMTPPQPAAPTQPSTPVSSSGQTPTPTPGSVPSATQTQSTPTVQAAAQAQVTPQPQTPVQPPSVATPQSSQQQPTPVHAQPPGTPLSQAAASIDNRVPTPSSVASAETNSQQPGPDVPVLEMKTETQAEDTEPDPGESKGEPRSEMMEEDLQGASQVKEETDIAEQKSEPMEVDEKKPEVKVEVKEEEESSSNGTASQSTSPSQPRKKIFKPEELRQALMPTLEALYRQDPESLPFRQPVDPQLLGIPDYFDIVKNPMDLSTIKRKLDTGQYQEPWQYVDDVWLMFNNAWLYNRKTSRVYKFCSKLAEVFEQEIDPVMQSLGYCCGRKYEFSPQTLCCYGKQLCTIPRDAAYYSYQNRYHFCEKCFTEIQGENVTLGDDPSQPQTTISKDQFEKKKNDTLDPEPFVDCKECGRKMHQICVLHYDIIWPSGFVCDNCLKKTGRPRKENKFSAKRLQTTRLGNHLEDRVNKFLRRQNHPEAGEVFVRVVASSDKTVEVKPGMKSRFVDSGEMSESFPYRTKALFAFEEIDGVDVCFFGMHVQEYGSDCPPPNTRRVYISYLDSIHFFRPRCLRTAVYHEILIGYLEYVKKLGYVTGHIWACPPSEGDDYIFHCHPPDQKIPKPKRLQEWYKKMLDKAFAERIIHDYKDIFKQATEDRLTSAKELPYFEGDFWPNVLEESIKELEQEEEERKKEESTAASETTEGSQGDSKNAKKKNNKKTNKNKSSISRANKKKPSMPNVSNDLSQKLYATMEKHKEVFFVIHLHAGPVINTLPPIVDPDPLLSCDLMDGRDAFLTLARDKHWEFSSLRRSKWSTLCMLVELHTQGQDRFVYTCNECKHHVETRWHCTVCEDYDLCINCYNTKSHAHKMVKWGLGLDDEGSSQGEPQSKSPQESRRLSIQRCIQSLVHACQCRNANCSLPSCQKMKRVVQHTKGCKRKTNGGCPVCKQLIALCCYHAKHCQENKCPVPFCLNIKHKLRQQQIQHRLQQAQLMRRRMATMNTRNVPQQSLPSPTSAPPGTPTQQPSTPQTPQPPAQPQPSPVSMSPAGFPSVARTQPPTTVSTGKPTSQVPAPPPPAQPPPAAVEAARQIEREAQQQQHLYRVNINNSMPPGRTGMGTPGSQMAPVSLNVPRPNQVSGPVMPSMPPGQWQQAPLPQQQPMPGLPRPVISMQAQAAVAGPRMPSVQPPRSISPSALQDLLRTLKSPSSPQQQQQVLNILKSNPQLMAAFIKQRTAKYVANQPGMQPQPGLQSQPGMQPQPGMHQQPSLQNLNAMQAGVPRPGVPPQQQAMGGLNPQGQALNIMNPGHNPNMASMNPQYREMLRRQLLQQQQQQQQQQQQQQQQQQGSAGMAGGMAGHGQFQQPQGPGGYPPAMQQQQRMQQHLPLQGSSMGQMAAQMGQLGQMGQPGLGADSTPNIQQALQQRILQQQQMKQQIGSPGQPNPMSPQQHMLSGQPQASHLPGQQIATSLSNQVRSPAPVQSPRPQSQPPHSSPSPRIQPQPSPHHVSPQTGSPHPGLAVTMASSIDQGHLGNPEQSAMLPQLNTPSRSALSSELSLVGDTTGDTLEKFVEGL
UniProt Q09472: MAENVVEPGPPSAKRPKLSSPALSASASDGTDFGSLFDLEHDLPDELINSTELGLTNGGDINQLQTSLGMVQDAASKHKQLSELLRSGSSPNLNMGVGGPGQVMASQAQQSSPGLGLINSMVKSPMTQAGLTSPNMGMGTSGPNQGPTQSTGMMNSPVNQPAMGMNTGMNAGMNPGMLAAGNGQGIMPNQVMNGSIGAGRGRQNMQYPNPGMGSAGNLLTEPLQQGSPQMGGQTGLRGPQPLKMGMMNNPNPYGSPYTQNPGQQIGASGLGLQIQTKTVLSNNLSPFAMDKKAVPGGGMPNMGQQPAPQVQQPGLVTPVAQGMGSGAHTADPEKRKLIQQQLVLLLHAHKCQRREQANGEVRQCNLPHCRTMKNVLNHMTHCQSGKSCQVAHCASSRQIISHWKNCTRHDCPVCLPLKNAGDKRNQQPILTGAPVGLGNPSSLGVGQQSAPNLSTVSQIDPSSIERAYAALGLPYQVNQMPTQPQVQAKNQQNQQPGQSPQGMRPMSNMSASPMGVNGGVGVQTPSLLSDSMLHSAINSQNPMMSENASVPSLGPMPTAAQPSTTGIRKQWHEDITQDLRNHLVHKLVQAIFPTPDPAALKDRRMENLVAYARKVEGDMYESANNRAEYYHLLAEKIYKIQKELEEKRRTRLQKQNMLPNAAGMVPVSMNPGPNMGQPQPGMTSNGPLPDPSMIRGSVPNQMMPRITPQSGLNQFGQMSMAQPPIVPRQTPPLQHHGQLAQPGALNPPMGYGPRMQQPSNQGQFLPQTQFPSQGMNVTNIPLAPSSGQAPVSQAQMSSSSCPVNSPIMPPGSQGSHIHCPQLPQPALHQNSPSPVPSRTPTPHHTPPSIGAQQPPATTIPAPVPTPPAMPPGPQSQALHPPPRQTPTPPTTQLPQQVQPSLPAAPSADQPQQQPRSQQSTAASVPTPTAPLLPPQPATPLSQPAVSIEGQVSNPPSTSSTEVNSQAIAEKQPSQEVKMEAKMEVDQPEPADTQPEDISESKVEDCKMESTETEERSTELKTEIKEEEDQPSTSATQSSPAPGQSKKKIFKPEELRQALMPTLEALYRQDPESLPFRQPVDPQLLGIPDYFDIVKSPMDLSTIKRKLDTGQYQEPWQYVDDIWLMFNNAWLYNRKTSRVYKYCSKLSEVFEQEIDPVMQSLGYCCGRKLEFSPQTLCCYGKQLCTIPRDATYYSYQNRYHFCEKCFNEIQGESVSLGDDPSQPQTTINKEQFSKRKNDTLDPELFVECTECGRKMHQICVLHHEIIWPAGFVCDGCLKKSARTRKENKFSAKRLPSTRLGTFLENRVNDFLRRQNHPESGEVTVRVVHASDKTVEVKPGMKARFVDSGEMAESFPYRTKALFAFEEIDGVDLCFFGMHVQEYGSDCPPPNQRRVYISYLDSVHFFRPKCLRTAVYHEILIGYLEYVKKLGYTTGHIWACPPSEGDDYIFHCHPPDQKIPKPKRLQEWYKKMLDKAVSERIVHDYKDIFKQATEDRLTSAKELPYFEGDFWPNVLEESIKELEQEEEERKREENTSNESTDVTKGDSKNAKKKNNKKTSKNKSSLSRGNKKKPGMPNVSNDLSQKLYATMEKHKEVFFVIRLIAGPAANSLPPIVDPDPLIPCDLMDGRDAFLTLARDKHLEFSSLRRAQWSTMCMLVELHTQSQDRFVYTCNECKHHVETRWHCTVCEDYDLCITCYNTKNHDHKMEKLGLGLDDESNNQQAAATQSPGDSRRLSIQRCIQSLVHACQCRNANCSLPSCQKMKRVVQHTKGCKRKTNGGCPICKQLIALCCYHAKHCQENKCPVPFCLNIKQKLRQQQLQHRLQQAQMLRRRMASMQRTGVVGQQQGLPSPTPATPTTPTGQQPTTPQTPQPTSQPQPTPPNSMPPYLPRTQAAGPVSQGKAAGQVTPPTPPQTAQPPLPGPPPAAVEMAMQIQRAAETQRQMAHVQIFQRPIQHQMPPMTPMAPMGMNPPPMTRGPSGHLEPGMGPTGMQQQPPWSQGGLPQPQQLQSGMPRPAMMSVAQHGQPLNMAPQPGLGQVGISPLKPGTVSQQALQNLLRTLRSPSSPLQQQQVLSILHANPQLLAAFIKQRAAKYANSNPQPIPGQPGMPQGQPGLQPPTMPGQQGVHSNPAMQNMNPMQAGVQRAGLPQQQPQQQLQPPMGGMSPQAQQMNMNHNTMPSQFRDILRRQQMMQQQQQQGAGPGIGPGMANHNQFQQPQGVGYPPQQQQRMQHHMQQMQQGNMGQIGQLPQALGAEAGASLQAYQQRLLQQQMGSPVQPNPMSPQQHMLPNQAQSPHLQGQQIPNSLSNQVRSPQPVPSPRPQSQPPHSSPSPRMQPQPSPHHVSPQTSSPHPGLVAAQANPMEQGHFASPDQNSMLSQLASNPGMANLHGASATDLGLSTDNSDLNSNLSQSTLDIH

Substance	binding
CREB‐binding protein (CBP), endogenous in IM-9 cells (from UniProt Q92793 1-2442)	binds
p300, endogenous in myeloma cells (from UniProt Q09472 1-2414)	binds

Reference: PMC12097018
